Source: PMC5339975, “Cytotoxicity, antimicrobial and antioxidant activity of eight compounds isolated from Entada abyssinica (Fabaceae)” (BMC Research Notes, 2017)

Columns and labels:
RAW 264.7 cells = experiment: MTT cytotoxicity assay, cancer cells; type: cell-based; settings: LC50 of Vero cells divided by LC50 of RAW 264.7 cells
Procedure: (§1) Cancer cell lines including human monocytic THP-1 and murine macrophage RAW 264.7 cells and the normal mammalian Vero monkey kidney cell line were obtained from the American Type Culture Collection (Rockville, MD, USA). They were maintained in DMEM under standard cell culture conditions at 37 °C and 5% CO2 in a humidified environment.
(§2) The 3-(4,5-dimethylthiazol-2-yl)-2,5-diphenyltetrazolium bromide (MTT) assay was used to determine the cytotoxicity of the compounds as previously described. The selectivity index (SI) values to identify selective anti-cancer cell activity were calculated by dividing the LC50 values of normal Vero cells by the LC50 of cancer cells.

THP-1 cells = experiment: MTT cytotoxicity assay, cancer cells; type: cell-based; settings: LC50 of Vero cells divided by LC50 of THP-1 cells
Procedure: as §1, §2

Structure (SMILES) | RAW 264.7 SI (RAW 264.7 cells) | THP-1 SI (THP-1 cells)
COC(=O)/C=C(/C)CC[C@]1(C)[C@H]2CCC=C(C(=O)O)[C@]2(C)CC[C@@H]1C [Compound 4, (8S)-kolavic acid 15-methyl ester] | 1.35 | 1.41
COc1ccc(C[C@H](N)C(=O)N[C@H]2[C@@H](O)[C@H](n3cnc4c(N(C)C)ncnc43)O[C@@H]2CO)cc1 [Puromycin, reference compound] | 61.23 | 176.03
COC(=O)c1cc(O)c(O)c(O)c1 [Compound 6, methyl gallate] | 1.91 | 0.94
COc1c(O)c(O)cc2c1COc1c-2oc2cc(O)cc(O)c2c1=O [Compound 7, entadanin] | 3.68 | 0.84
C[C@@H]1CC[C@@]2(C)C(C(=O)O)=CCC[C@@H]2[C@@]1(C)CC(=O)O [Compound 5, 13,14,15,16-tetranor-3-clerodene-12,18-dioic acid] | 4.37 | 3.23
O=C(CCCCCCCCCCCCCCCCCCCCCCCCC(=O)OC[C@@H](O)CO)OC[C@@H](O)CO [Compound 8, bis-[(S)-(2,3-dihydroxypropyl)] hexacosanedioate] | 0.81 | 1.08
C[C@@H]1O[C@@H](Oc2c(-c3ccc(O)c(O)c3)oc3cc(O)cc(O)c3c2=O)[C@H](O)[C@H](O)[C@H]1O [Compound 2, quercetin-3-O-α-L-rhamnoside] | 4.28 | 
